{"source": "patent US20190083477A1", "about": "“Cyclooxygenase Inhibitor and Calcium Channel Antagonist Compositions and Methods for Use in Urological Procedures” (Omeros Corporation, priority 2005, published 2019)", "key": {"[1]": {"test_system": "rat bladder tissue strips", "test": "Ketoprofen and nifedipine combination on bradykinin induced contractility in rat bladder tissue strips (Example III)", "format": "cell-based", "conditions": "control curve, n=12 strips"}, "[2]": {"test_system": "bradykinin-induced PGE2 in rat bladder tissue strips", "test": "PGE2 release from urinary bladder strips, enzyme immunoassay (Example I)", "format": "cell-based", "conditions": "bradykinin-stimulated rat bladder tissue strips"}}, "note": "At least one structure is not confirmed: it was looked up by name or label, or the drawing left a doubt. Ends that are not written are not given here."}
{"sequence": "RPPGFSPFR [bradykinin]", "values": [{"measurement": "Hill slope of activation curve", "setting": "[1]", "value": 0.65}, {"measurement": "pEC50, force of contraction", "setting": "[1]", "value": 8.14}, {"measurement": "t1/2 for formation of PGE2", "setting": "[2]", "value": "about 7.5 minutes"}, {"measurement": "time to maximum PGE2 formation", "setting": "[2]", "value": "≤ 30", "unit": "min"}]}
